# From patent publication US5264355A, “Methlating enzyme from streptomyces MA6858” (Merck & Co., Inc., priority 1992, dated 1993)
# At least one structure is not confirmed: it was looked up by name or label, or the drawing left a doubt.
# Target: T1, 31-O-desmethylFK-506 O-methyltransferase (FKMT) (Streptomyces tacrolimicus, UniProt P74838)
# T1 construct: endogenous in cells; host or cells: Native enzyme purified in house from mycelium of Streptomyces MA6858 (ATCC 55098), not recombinant; for the kinetics, purified through the second MonoQ column
# T1 sequence (P74838 1-260): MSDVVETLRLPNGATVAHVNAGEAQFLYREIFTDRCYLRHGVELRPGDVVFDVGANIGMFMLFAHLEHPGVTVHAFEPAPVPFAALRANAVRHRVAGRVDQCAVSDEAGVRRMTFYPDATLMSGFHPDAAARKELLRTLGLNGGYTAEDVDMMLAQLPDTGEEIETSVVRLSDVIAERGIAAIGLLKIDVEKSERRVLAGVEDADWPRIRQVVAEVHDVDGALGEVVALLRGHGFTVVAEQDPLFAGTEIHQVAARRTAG
# Assay: FKMT O-methyltransferase assay / kinetic analysis
# Type: biochemical, Streptomyces sp. MA6858
# Settings: SAM concentration up to 550 uM
# Description: This enzyme, is SAM dependent and has requirement for Mg^+2 with optimum concentration of 4 mM. […] The temperature effect on the methylation reaction was examined at 0°, 22°, 24°, 34°, 37°, and 44° C. The optimum temperature for the reaction was determined to be at 34° C. Above this temperature there was a problem with substrate decomposition. Under the established incubation condition in which 31 uM of substrate A and 220 uM of SAM were used, the rate of the methylation reaction was linear up to 35 min with protein concentration up to 100 ug.
# For the kinetic studies, a preparation of the FKMT enzyme which had been purified through the second MonoQ column chromatography was used. Under conditions for the initial velocity measurement, apparent Km and Vmax were determined for 31-O-desmethyFK-506 (substrate A) at one saturating concentration of SAM ([…]). […]
# The assay was carried out in 1 ml. mixture containing 0.025 mM 31-desmethylFK-506, 4 mM MgSO4 and different quantities of the enzyme source in 50 mM phosphate buffer, pH 7.5. […] The plastic sheet was developed in chloroform:methanol (9:1) and area showing standard FK-506 under UV-light was cut and the radioactivity in the cut-strip was measured and the amount of the product formed was calculated.
smiles,measurement,value
"C[S+](CC[C@H](N)C(=O)O)C[C@H]1O[C@@H](n2cnc3c(N)ncnc32)[C@H](O)[C@@H]1O (stereo partly shown) [SAM, S-adenosyl methionine]",substrate inhibition,did not show any substrate inhibition
